# Laboratory results taken from article PMC7819943, “Rice protein-binding microarrays: a tool to detect cis-acting elements near promoter regions in rice”.
# The chains behind the UniProt entries cited, without tags or fusion partners.
# UniProt Q0JBA9, entry or part of it: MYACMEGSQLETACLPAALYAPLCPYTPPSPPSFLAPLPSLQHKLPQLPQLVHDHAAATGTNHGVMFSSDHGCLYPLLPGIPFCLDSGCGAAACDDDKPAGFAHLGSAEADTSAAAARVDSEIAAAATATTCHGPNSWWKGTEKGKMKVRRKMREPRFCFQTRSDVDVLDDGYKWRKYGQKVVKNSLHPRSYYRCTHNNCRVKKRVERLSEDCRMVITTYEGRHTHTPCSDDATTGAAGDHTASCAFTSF
# The other results are listed elsewhere or left out.
# Biological target: OsWRKY34 (Oryza sativa, UniProt Q0JBA9 1-250)
# Experiment: protein-binding microarray (RPBM); PBS, 2% BSA, 51.3 ng/ul salmon testes DNA, 50 uM zinc acetate, 200 nM TF, 25 C, 1 h; high values mean tight binding
# Settings: protein: recombinant; tags: N-terminal polyhistidine and DsRed monomer fusion (pET32a); label: CyDye5-dUTP incorporated in the synthesized complementary strand; 3' TTTTT single-stranded linker to array surface; dsDNA, one strand shown
# In short: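 Transcription factors, each fused N-terminally to a polyhistidine tag and DsRed, were expressed in E. coli BL21-CodonPlus and purified on Ni–NTA. A custom Agilent array was made double-stranded by primer extension with Cy5-dUTP and blocked with 2% BSA. It was incubated with 200 nM protein in PBS, 2% BSA, salmon testes DNA and 50 µM zinc acetate at 25 °C for 1 h, then washed. The binding signal is per-feature fluorescence intensity (arbitrary units) read on an Axon 4000B scanner.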
row,Sequence,binding signal
1,CGTCCGTGCCGTCGATGATGCCTGTGGAGTGGTGATCCCGCGGAGTCACCTAGTGCAG,8520 fluorescence intensity (a.u.)
2,CTTCCGTTCTTCTCTTGTTTACCATATAAGGGCATGTACACGGAGTCACCTAGTGCAG,11300 fluorescence intensity (a.u.)
3,ATTTTCTTTTGCTCAGTTCGACACATAGACATCTGAGGCTCGGAGTCACCTAGTGCAG,8030 fluorescence intensity (a.u.)
4,AGGGGAGAGAAAGAGAGAGGAGGGAGGGAGGGAGGAGGAACGGAGTCACCTAGTGCAG,10800 fluorescence intensity (a.u.)
5,TATCCAACTCCGCGTCCGTCCAGCTCTGCTTCCTACACAACGGAGTCACCTAGTGCAG,8410 fluorescence intensity (a.u.)
6,GCCCTACTTTCTTCAGTAGTTTGAAACCTTTCTGCGCCACCGGAGTCACCTAGTGCAG,9880 fluorescence intensity (a.u.)
7,CCTACCGGATCCTGGTCGCCGTCGTCGCCTGCCTCTTCGTCGGAGTCACCTAGTGCAG,9350 fluorescence intensity (a.u.)
8,GGCTTTGTAGGCTATGGTCGATGTGTTGGTGGTGAAATTCCGGAGTCACCTAGTGCAG,8020 fluorescence intensity (a.u.)
9,CTGGGTTTTTTCTGGTGGGTCAGTACGCATGCGCTCCTCTCGGAGTCACCTAGTGCAG,10900 fluorescence intensity (a.u.)
10,ACTGCACTCTGCTTGCCATATCTGAAGTATGTCTATTGGCCGGAGTCACCTAGTGCAG,9590 fluorescence intensity (a.u.)
11,ATTCTAAATTCCAATTCGTTCTTTCTCGGGACCCTAGACTCGGAGTCACCTAGTGCAG,8940 fluorescence intensity (a.u.)
12,ATATGCTTCTGTTCCCTTTTACAATTTGATTGCTTCCTTTCGGAGTCACCTAGTGCAG,9480 fluorescence intensity (a.u.)
13,TTTTCGGCCAAATATTCCCGCGCCATCTCCGCTTTGTCAGCGGAGTCACCTAGTGCAG,14000 fluorescence intensity (a.u.)
14,ACTTTGGACCATTTTATCTTCTTATATACTATATATTTTACGGAGTCACCTAGTGCAG,12300 fluorescence intensity (a.u.)
15,GCTCCCGCGCCCGTTCCAGCTCGCCCGCTCTAGCTTCGCGCGGAGTCACCTAGTGCAG,9400 fluorescence intensity (a.u.)
16,CTAGCTTAATTCTGTTTTCATCGTTGTTGGTTTACTTTGACGGAGTCACCTAGTGCAG,8880 fluorescence intensity (a.u.)
17,TCACCTTCAACGCCGTGTTCAGCGGCCTCGTCGGCATCTTCGGAGTCACCTAGTGCAG,8310 fluorescence intensity (a.u.)
18,GCAACCATAAGTTTCCACGTCCAACTTTTTATCGTCCGTCCGGAGTCACCTAGTGCAG,10100 fluorescence intensity (a.u.)
19,TCTTTCCACTTCGTTCCACCTCTCCTCCGTGCAAAATCCCCGGAGTCACCTAGTGCAG,8090 fluorescence intensity (a.u.)
20,ATATGAAACTTAAGTTCTTTTTTTTCTCAAAAAATCCTTCCGGAGTCACCTAGTGCAG,8090 fluorescence intensity (a.u.)
21,CTATCTATATCTATCTATCTATCTTTCTATACCTATACTACGGAGTCACCTAGTGCAG,9100 fluorescence intensity (a.u.)

# No new results follow: entries from further up.
row,Sequence,binding signal
15,GCTCCCGCGCCCGTTCCAGCTCGCCCGCTCTAGCTTCGCGCGGAGTCACCTAGTGCAG,9400 fluorescence intensity (a.u.)
16,CTAGCTTAATTCTGTTTTCATCGTTGTTGGTTTACTTTGACGGAGTCACCTAGTGCAG,8880 fluorescence intensity (a.u.)

# (cont.)

row,Sequence,binding signal
1,TTTTCTCTTGAAAATATTAGTTTTTTCACTTCCTATTTTCCGGAGTCACCTAGTGCAG,8580 fluorescence intensity (a.u.)
2,TGTTCATCTTGCTCGTTCCTCCTCTCGCAGTCGCAGGTCGCGGAGTCACCTAGTGCAG,8980 fluorescence intensity (a.u.)
3,CCTCTCCTCCTCACTGATGCCTCTCCTGTCCTCGAGCGGTCGGAGTCACCTAGTGCAG,8600 fluorescence intensity (a.u.)
4,ATACTAGATTAATAGATATCTCTAACCTTTTTATCGCGTGCGGAGTCACCTAGTGCAG,8380 fluorescence intensity (a.u.)
5,TAGTTTCTTTTTTACCTTGTTACGGCCCCACTTTTATTTTCGGAGTCACCTAGTGCAG,10700 fluorescence intensity (a.u.)
6,GGTTGGTTCCGTCCCTCTCATGTCGCTGTTTATACCGTTGCGGAGTCACCTAGTGCAG,12400 fluorescence intensity (a.u.)
7,TGAGTTGCCATTAGGATTTTTTTTCTTCTGTCTCGCCATGCGGAGTCACCTAGTGCAG,10800 fluorescence intensity (a.u.)
8,GATACTGTAGTCAATATATTTTTAATGTTACATTGTTTTACGGAGTCACCTAGTGCAG,8220 fluorescence intensity (a.u.)
9,AGCAAGCTATACACCTCTCTTTCTCTCCTCTCTATCTTTCCGGAGTCACCTAGTGCAG,10300 fluorescence intensity (a.u.)
10,CCTTCACCATTCGCCACCAACACACCGTTAGGCTCGACAACGGAGTCACCTAGTGCAG,10600 fluorescence intensity (a.u.)
11,ACCTAGATCCACCTCGTTAGTTTATTTTGTGAGAGTGCTCCGGAGTCACCTAGTGCAG,9140 fluorescence intensity (a.u.)
12,CGCTTTCCTCTCCGGCAACGACCTCGCAGCTGTGGCCACCCGGAGTCACCTAGTGCAG,18600 fluorescence intensity (a.u.)
13,ATCAGTGACGACCATGCTCGCGACATCAACCGATCAGCTTCGGAGTCACCTAGTGCAG,9340 fluorescence intensity (a.u.)
14,GAACGCCAATGTTCGCTTCACCTCCCAATTGCAGTTCACACGGAGTCACCTAGTGCAG,10400 fluorescence intensity (a.u.)
15,GATTAAGTCCTTACCTACTATTCGCGTCTTGGCTCACGCACGGAGTCACCTAGTGCAG,9120 fluorescence intensity (a.u.)
16,ATTTTCAGTGAATACTCAAGCTTTATTTCTGTTTATTGAACGGAGTCACCTAGTGCAG,9650 fluorescence intensity (a.u.)
17,TTTCCATGATTCCATCTCCTCCATTCCCATCCGCCCGCATCGGAGTCACCTAGTGCAG,8600 fluorescence intensity (a.u.)
18,ACACCCGCATATGATACCCTATGTAATACCCGATGTGATACGGAGTCACCTAGTGCAG,8150 fluorescence intensity (a.u.)
19,CCTCTTGTTCGTCTTGCTCTGTTTCTTTCTTGTTCTCTCCCGGAGTCACCTAGTGCAG,9550 fluorescence intensity (a.u.)
20,ACACACACACATCGTTGCAGCCTCGCACCGCCCGATAATACGGAGTCACCTAGTGCAG,8780 fluorescence intensity (a.u.)
21,CTCTTCTCCAGTTCTCTATTTCTTCCACTTCTCTCTTTCTCGGAGTCACCTAGTGCAG,11000 fluorescence intensity (a.u.)
